A short description of data set [1]: Shell wheel test (corrosion inhibition). Particulars: saltwater/petroleum mixture, pH 3.5, 70° C., 24 hours, 40 rpm; 50 ppm of a 40% solution of the inhibitor; mass decrease vs blank.
Data set [2] in a line: LPR test (test conditions analogous to ASTM D 2776).

As for `CCCCCCCC/C=C\CCCCCCCCN1CC(C(=O)O)CC1=O` (centres unmarked) [Comparative 2, N-oleyl-5-oxopyrrolidine-3-carboxylic acid, reference compound], the Ø % protection in data set [1] stood at 60%. In data set [2], the “Protection after 10 min” value was 2%, the “Protection after 30 min” value came out at 10% and the “Protection after 60 min” value was 23%.
The corresponding values for `CCCCCCCC/C=C\CCCCCCCCN.CCCCCCCC/C=C\CCCCCCCCN1CC(C(=O)O)CC1=O` (centres unmarked) [Comparative 3, N-oleyl-5-oxopyrrolidine-3-carboxylic acid, salt with oleylamine, reference compound] are 55%, 1%, 8% and 17%.
For `CCCCN1CC(C(=O)O)CC1=O.CCCCNCCCC` (centres unmarked) [Comparative 4, N-butyl-5-oxopyrrolidine-3-carboxylic acid, salt with dibutylamine, reference compound], the Ø % protection in data set [1] was found to be 21%. For the same molecule, in data set [2], the “Protection after 10 min” value was found to be 4%, the “Protection after 30 min” value was 12% and the “Protection after 60 min” value is given as 25%.
The matching figures for `CCCCCCCCN1CC(C(=O)O)CC1=O.NCCO` (centres unmarked) [Compound from example 1, N-octyl-5-oxopyrrolidine-3-carboxylic acid monoethanolammonium salt]: 73%, 65%, 79% and 86%.
On to `CCCCCCCCN1CC(C(=O)O)CC1=O.OCCN(CCO)CCO` (centres unmarked) [Compound from example 2, N-octyl-5-oxopyrrolidine-3-carboxylic acid triethanolammonium salt], for which, in data set [1], the Ø % protection was 69%. In data set [2], the “Protection after 10 min” value is listed as 59%, the “Protection after 30 min” value worked out at 76% and the “Protection after 60 min” value is on record as 81%.
In the case of `CCCCCCCC/C=C\CCCCCCCCN1CC(C(=O)O)CC1=O.NCCO` (centres unmarked) [Compound from example 5, N-oleyl-5-oxopyrrolidine-3-carboxylic acid monoethanolammonium salt], in data set [1], the Ø % protection worked out at 90%. Moreover, in data set [2], the “Protection after 10 min” value was found to be 91%, the “Protection after 30 min” value is reported as 95% and the “Protection after 60 min” value stood at 99%.
The matching figures for “N-cocoyl-5-oxopyrrolidine-3-carboxylic acid N,N-diethyl-(2-hydroxyethyl) ammonium salt [Compound from example 3]”: 90%, 91%, 96% and 99%.
On to “N-oleyl-5-oxopyrrolidine-3-carboxylic acid 2-(2-hydroxyethoxy)ethylammonium salt [Compound from example 4]”, for which, in data set [1], the Ø % protection was 89%. Besides, in data set [2], the “Protection after 10 min” value came to 90%, the “Protection after 30 min” value was found to be 96% and the “Protection after 60 min” value was 99%.

These data come from patent US8349215B2, “Corrosion inhibitors having increased biological degradability and minimized toxicity” (Clariant Finance (BVI) Limited, priority 2008, dated 2013).
